Earlier results as cited in patent US20040152666A1, “Methods of reducing complications associated with peritoneal dialysis in patients with diabetes obesity and/or hyperlipidemia” (priority 2002, published 2004).
“Also recorded” adds a separate entry of the source.

Settings: intravenous infusion (refs. 20, 16); cited from earlier work

For `CC(=O)N[C@H]1C(O)O[C@H](CO)[C@@H](O)[C@@H]1O` (stereo partly shown) [NAG, N-acetylglucosamine], the “change of blood glucose level after intravenous infusion” value is listed as “none or only slight increase of blood glucose level; also recorded: hypoglycemia”.
